These results are taken from paper PMC7819943, “Rice protein-binding microarrays: a tool to detect cis-acting elements near promoter regions in rice”.

The other results are listed elsewhere or left out.

This assay has as its target T1, OsSMF1 (Oryza sativa, UniProt Q6ZLB0 1-436).
T1 sequence: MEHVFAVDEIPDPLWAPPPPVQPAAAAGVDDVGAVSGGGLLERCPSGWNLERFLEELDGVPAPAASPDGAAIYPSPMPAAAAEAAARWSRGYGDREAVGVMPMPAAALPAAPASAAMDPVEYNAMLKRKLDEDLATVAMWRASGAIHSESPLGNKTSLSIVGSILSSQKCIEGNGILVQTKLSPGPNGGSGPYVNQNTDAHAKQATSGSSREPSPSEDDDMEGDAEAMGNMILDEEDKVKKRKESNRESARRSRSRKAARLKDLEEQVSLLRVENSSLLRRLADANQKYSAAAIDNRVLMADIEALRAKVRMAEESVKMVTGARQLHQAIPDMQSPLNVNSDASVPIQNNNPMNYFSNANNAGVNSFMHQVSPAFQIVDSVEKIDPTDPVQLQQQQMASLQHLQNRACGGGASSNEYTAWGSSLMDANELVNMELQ
As to the kind of experiment: protein-binding microarray (RPBM); PBS, 2% BSA, 51.3 ng/ul salmon testes DNA, 50 uM zinc acetate, 200 nM TF, 25 C, 1 h; high values mean tight binding. The note with it: protein: recombinant; tags: N-terminal polyhistidine and DsRed monomer fusion (pET32a); chain copies: 2; label: CyDye5-dUTP incorporated in the synthesized complementary strand; 3' TTTTT single-stranded linker to array surface; dsDNA, one strand shown. The essentials:
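An Axon 4000B scanner gave the binding signal as per-feature fluorescence intensity in arbitrary units. This followed washing of a custom Agilent array that had been incubated for 1 h at 25 °C with 200 nM protein in PBS, 2% BSA, salmon testes DNA and 50 µM zinc acetate. The proteins were transcription factors fused at the N-terminus to polyhistidine and DsRed, expressed in E. coli BL21-CodonPlus and purified on Ni–NTA.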
In the case of “AACTTGGTGGGTTTGGTTTTGCTCTTTCTGTTGACCAAGCCGGAGTCACCTAGTGCAG”, the binding signal was 3190 fluorescence intensity (a.u.).
With “GCCATCCAAAGCCTTGGGCCCACAGAACAGTCTCCCTTTACGGAGTCACCTAGTGCAG”, the binding signal was 23200 fluorescence intensity (a.u.).
For “AACCACAAGACGACGATGGGTTGGTGGCCGGCCGCCTCCCCGGAGTCACCTAGTGCAG”, the binding signal is 23800 fluorescence intensity (a.u.).
Under “TCCAGATCCACACCAGCCACCCGACCGAGTCACGTGCGTCCGGAGTCACCTAGTGCAG” stands 3370 fluorescence intensity (a.u.).
For “TGGAGAGGAGAGGGAGGGGTTTCCGGCCCCTTTGCATTTGCGGAGTCACCTAGTGCAG”, the binding signal was 3720 fluorescence intensity (a.u.).
Under “GCGGCACAGCGGCTACAGCTAGTGCGAGCCACGGGTGCATCGGAGTCACCTAGTGCAG” stands 4200 fluorescence intensity (a.u.).
In the case of “GTCGCAGGGGCCGAACACCGTCAACCCTGAGATCCTAAAGCGGAGTCACCTAGTGCAG”, the binding signal was 3290 fluorescence intensity (a.u.).
Consider “ATGCAACAGCATCACACTATCACAGTCATGTAGGCCCAAGCGGAGTCACCTAGTGCAG”, for which the binding signal was 4500 fluorescence intensity (a.u.).
Under “ATCGTGTCAGCTCAACGTGTCAGGCGTCGAATCTCGTAAACGGAGTCACCTAGTGCAG” stands 4230 fluorescence intensity (a.u.); under “AACGTAACAAGACGACGTTCTGACTCGTGACGCGAAGTTTCGGAGTCACCTAGTGCAG”, 4420 fluorescence intensity (a.u.); under “GCCGCCTTTCGTTACCCACCAACCCAACCTCGTTCTACGGCGGAGTCACCTAGTGCAG”, 35900 fluorescence intensity (a.u.).
Then “TTGATTGGAATACGGTGGATGATACTGAAGTAGACAAGAACGGAGTCACCTAGTGCAG”, with 16000 fluorescence intensity (a.u.); and “GTTATATCTCACGTGTCAAAATTCCTATGATTTTCAGTAACGGAGTCACCTAGTGCAG”, with 4700 fluorescence intensity (a.u.).
Then “CTGGACCAATAAGAGGGCCTCATCATGGCCACCCAATCGGCGGAGTCACCTAGTGCAG”, with 3180 fluorescence intensity (a.u.).
Turning to “GCTCCTTTCCTGCCTTGCTAGTGCGGCGCCGGTCACGGCACGGAGTCACCTAGTGCAG”, the binding signal was 3260 fluorescence intensity (a.u.).
For the sequence “ACAAATTATAAGTAACAAACTTTTGTGACGTATAGTAGCCCGGAGTCACCTAGTGCAG”, the binding signal is 4440 fluorescence intensity (a.u.).
In the case of “GCGTTGCTGCTTCATTGTGTTACACGTAGTTGCTTAGGCACGGAGTCACCTAGTGCAG”, the binding signal is 5060 fluorescence intensity (a.u.).
Then “CAGTCAGTACATAGCTGATCACTCTCATCTCTTGCATCTACGGAGTCACCTAGTGCAG”, with 3570 fluorescence intensity (a.u.); and “ATCATCTATCAATCCCTACCATCGCCCTCTTTCTGTTTTGCGGAGTCACCTAGTGCAG”, with 3310 fluorescence intensity (a.u.); and “GCTGCTGAGTCAACAACGACGACCGAGGTCAAAGCGCCACCGGAGTCACCTAGTGCAG”, with 10000 fluorescence intensity (a.u.).
Regarding “CGCACGCATCGTCGCGGCGGCGAGACGTGCCACCGCTTCGCGGAGTCACCTAGTGCAG”, the binding signal was 3420 fluorescence intensity (a.u.).
In the case of “AACGTTGGATCTTTATTTTCGCAGGTGGATATGACACCCACGGAGTCACCTAGTGCAG”, the binding signal was 3160 fluorescence intensity (a.u.).
As for “TCCAGGCCGCATTGGCGTCGAGTCATCGACCAATCCAATCCGGAGTCACCTAGTGCAG”, the binding signal is 5760 fluorescence intensity (a.u.).
Under “AGGGCTATCTGCTATCTCATCTTGTATGACAAAGATTGATCGGAGTCACCTAGTGCAG” stands 65500 fluorescence intensity (a.u.); under “GAAAAGTCCACATGCTACGTGCTAGGGTTAACAACGTTTTCGGAGTCACCTAGTGCAG”, 15800 fluorescence intensity (a.u.).
In the case of “GCCTATCCTGCCCTCTCTACTACCACCCTTATCGATCTCTCGGAGTCACCTAGTGCAG”, the binding signal is 3220 fluorescence intensity (a.u.).
With “CAAACTCCACTTGATTACTTCATCGTGCCGACGTCGACACCGGAGTCACCTAGTGCAG”, the binding signal is 4000 fluorescence intensity (a.u.).
“CTCGTAAGTAATGACACTATGATGACATATATTTTCAGTGCGGAGTCACCTAGTGCAG”: the binding signal was 4280 fluorescence intensity (a.u.).
In the case of “GCTGGCTGGATTGCCACGTGTATGTCACGTAGGATAAAACCGGAGTCACCTAGTGCAG”, the binding signal was 14300 fluorescence intensity (a.u.).
Take “TGTACATTTCTACTGACCTGCCACGTGGCACTTTACATTCCGGAGTCACCTAGTGCAG”: the binding signal was 34600 fluorescence intensity (a.u.).
Turning to “GCTCTGATATTTGATGAGGTTAAGCTTGTGCATGATGCAGCGGAGTCACCTAGTGCAG”, the binding signal is 3200 fluorescence intensity (a.u.).
Under “ACCAACGGCCCACCGGCTTCCACGTACCCAACCAAACAAGCGGAGTCACCTAGTGCAG” stands 4360 fluorescence intensity (a.u.); under “CCGACGACCGGCCATAGCTCTCACACACAGGTCAGACCCCCGGAGTCACCTAGTGCAG”, 3780 fluorescence intensity (a.u.); under “TGGATTTATATATCTTGATTTGTCATTAAGAATATCATGGCGGAGTCACCTAGTGCAG”, 4260 fluorescence intensity (a.u.).
Regarding “CCCTGTTTTCATCACTGACGTAGCTAGCAACTAGCTTCCACGGAGTCACCTAGTGCAG”, the binding signal was 6440 fluorescence intensity (a.u.).
Under “CTGTGCCGCTCGCTCGTTCGCTCTGTGACTGTACGTACATCGGAGTCACCTAGTGCAG” stands 4590 fluorescence intensity (a.u.); under “TCCTCACCACTCCGTCCTCACTGCAAACGGCTGCGGCCCCCGGAGTCACCTAGTGCAG”, 19900 fluorescence intensity (a.u.).
Regarding “TTTTAGATCACATGCATCTGTGCCATATCATCACCCACTACGGAGTCACCTAGTGCAG”, the binding signal was 5790 fluorescence intensity (a.u.).
Under “TCGTATGACCGTCAGCGAAAATGATAGAATAACGCTATGACGGAGTCACCTAGTGCAG” stands 3150 fluorescence intensity (a.u.); under “CGTGGTATCAAACGTCGACATTTTATAAACTTGATCAAATCGGAGTCACCTAGTGCAG”, 4220 fluorescence intensity (a.u.).
Then “TGGTGCGATCGATCGATCGAGAGTTGTGTCACCTTGAAGACGGAGTCACCTAGTGCAG”, with 3320 fluorescence intensity (a.u.).
Under “CGGCCCAGCCTAGTAGCCCACGTGTGCCATCACTCATCCGCGGAGTCACCTAGTGCAG” stands 6220 fluorescence intensity (a.u.).
